Data on 54 sequences can be found in paper PMC7819943, “Rice protein-binding microarrays: a tool to detect cis-acting elements near promoter regions in rice”.

By UniProt entry, the sequences of proteins in these tests, tags left out.
UniProt Q0JBA9, entry or part of it: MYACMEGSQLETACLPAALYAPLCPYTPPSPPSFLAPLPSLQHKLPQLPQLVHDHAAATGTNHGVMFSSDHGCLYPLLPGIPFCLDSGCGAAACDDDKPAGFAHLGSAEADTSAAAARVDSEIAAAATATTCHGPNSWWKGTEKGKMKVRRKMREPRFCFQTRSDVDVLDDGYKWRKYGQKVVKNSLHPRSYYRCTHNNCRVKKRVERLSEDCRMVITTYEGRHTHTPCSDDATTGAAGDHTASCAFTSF

This is one part of the list.

This experiment concerns the target OsWRKY34 (Oryza sativa, UniProt Q0JBA9 1-250). Briefly: protein-binding microarray (RPBM); PBS, 2% BSA, 51.3 ng/ul salmon testes DNA, 50 uM zinc acetate, 200 nM TF, 25 C, 1 h; high values mean tight binding. The note with it: protein: recombinant; tags: N-terminal polyhistidine and DsRed monomer fusion (pET32a); label: CyDye5-dUTP incorporated in the synthesized complementary strand; 3' TTTTT single-stranded linker to array surface; dsDNA, one strand shown. The procedure, abridged:
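Polyhistidine-tagged DsRed fusions of transcription factors, joined at the N-terminus, were expressed in E. coli BL21-CodonPlus and isolated on Ni–NTA. They were incubated at 200 nM for 1 h at 25 °C on a custom Agilent array, double-stranded and BSA-blocked, in PBS with 2% BSA, salmon testes DNA and 50 µM zinc acetate. The binding signal is per-feature fluorescence intensity (arbitrary units) read on an Axon 4000B scanner after washing.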
In the case of “CGGTCATCGGTCGACGTCCCAACTTTCTTTTCACCTCACGCGGAGTCACCTAGTGCAG”, the binding signal is 9150 fluorescence intensity (a.u.).
“TATTTTTTGTGATGTTTTAGTTGATGTTTCACTACTTTATCGGAGTCACCTAGTGCAG”: the binding signal is 8690 fluorescence intensity (a.u.).
The figure for “ACCGCGTCCACAGAACCACCTCACACGCGCCGCGCAACAACGGAGTCACCTAGTGCAG” is 8600 fluorescence intensity (a.u.); for “GGTGTTCAGCTTTTGCTTGACTCCTGTACCGTCTTAACATCGGAGTCACCTAGTGCAG” it is 10900 fluorescence intensity (a.u.).
The figure for “TATATATATATATATATATAGACACACACATCAACAACAACGGAGTCACCTAGTGCAG” is 11300 fluorescence intensity (a.u.); for “TCCCATGTTACCGTTCATGCTGGCTTAGCTTAAGCTAATCCGGAGTCACCTAGTGCAG” it is 8120 fluorescence intensity (a.u.); for “TGTTGGCAGTCCGACGTTGACCAAACTTGACTCGTCCAGACGGAGTCACCTAGTGCAG” it is 10100 fluorescence intensity (a.u.).
Take “TCGTGGACGTCACCCCATTTTCTCCTCGCTTCCCGCGTAACGGAGTCACCTAGTGCAG”: the binding signal was 11700 fluorescence intensity (a.u.).
The figure for “TCACATTGTACAATCACCTAGAAATTTGCTCACTTCCATGCGGAGTCACCTAGTGCAG” is 9100 fluorescence intensity (a.u.); for “ACCCTGTTTAGGAAATATGCTGGCTCATACTACCTCCGTTCGGAGTCACCTAGTGCAG” it is 8610 fluorescence intensity (a.u.); for “AACATATTATTCATTTTATTCATTGGCTAGCGGTGGCGAACGGAGTCACCTAGTGCAG” it is 9010 fluorescence intensity (a.u.).
The same measure for “TACGTCACTCCGTACTCCTCTCTTCCTGCCTGCCTACTCTCGGAGTCACCTAGTGCAG”: 10100 fluorescence intensity (a.u.).
The same measure for “CGGCGTCATGGTCCCTCTTCCGAGCAGCAGTACGGACATCCGGAGTCACCTAGTGCAG”: 8540 fluorescence intensity (a.u.).
In the case of “GCAACACACGTACACATCACATCTCTCGATTGGCTTCCTTCGGAGTCACCTAGTGCAG”, the binding signal is 14500 fluorescence intensity (a.u.).
The same measure for “TATATTTTCTTATAACTTAGTACCGAGCACCAGATCCAGTCGGAGTCACCTAGTGCAG”: 8500 fluorescence intensity (a.u.).
Turning to “AACTAGTCGTCGACTACATGCTCAAGCTTTATGCCGCTATCGGAGTCACCTAGTGCAG”, the binding signal was 9780 fluorescence intensity (a.u.).
The same measure for “CTATCTCTCTCATCTTTTTTTTTTGTTTTTTCCTATGGTACGGAGTCACCTAGTGCAG”: 8410 fluorescence intensity (a.u.); for “TTGCGTTCACCGCCTATAAATACCGTTGCCTAGCGCTGTCCGGAGTCACCTAGTGCAG”: 8240 fluorescence intensity (a.u.); for “AATAGCCATCGATACACACTCCTCTTTCTTTTCTCTCTTCCGGAGTCACCTAGTGCAG”: 9290 fluorescence intensity (a.u.).
As for “ATCAATCCAGTCATTACAATGTCACCATGTGAACACGTATCGGAGTCACCTAGTGCAG”, the binding signal is 8330 fluorescence intensity (a.u.).
The same measure for “TCAGCTGCGTCACCCGAGTCCTCCACTCGTCTCCGCTATTCGGAGTCACCTAGTGCAG”: 9610 fluorescence intensity (a.u.); for “CGCCACCCTTCATCGCCAGAGTCACGACCACCATCGCCTCCGGAGTCACCTAGTGCAG”: 8250 fluorescence intensity (a.u.).
Consider “TCCAGATATCCCGATACTTTCCATTCAAATTTTAATTTCTCGGAGTCACCTAGTGCAG”, for which the binding signal was 9050 fluorescence intensity (a.u.).
The same measure for “TTATGAATACGATCTACTTATTTGCTCTTCCTGTAGTTATCGGAGTCACCTAGTGCAG”: 10800 fluorescence intensity (a.u.).
The figure for “GCACGCTGTTAACTGAAACGCTTTTGACTGACGGGTGGGACGGAGTCACCTAGTGCAG” is 8160 fluorescence intensity (a.u.); for “TCTGCTCATCTCGGTTGGATCCATCCGTCCGTCGTCTCCTCGGAGTCACCTAGTGCAG” it is 8760 fluorescence intensity (a.u.); for “CACCCTAATCGCCGCCCGCGCCGTCTCCCACCTCGCCGGTCGGAGTCACCTAGTGCAG” it is 8490 fluorescence intensity (a.u.).
The same measure for “TGTGCCCAGTGACCATATGCTGATGCAGGCTATAAACTTTCGGAGTCACCTAGTGCAG”: 8150 fluorescence intensity (a.u.); for “CGGATTCGTTTCCAATTCCCGGCTCGGTTTGATATGTTTCCGGAGTCACCTAGTGCAG”: 10700 fluorescence intensity (a.u.).
As to “GGGTCGGGCCATGTATGCGCTGTAGTCAACGGCCCGTACGCGGAGTCACCTAGTGCAG”, the binding signal was 9830 fluorescence intensity (a.u.).
The same measure for “TGAATCCGGCTAGCATCTCTTTACTTGGTTCCGTCTTCTCCGGAGTCACCTAGTGCAG”: 11700 fluorescence intensity (a.u.).
The figure for “GCCCCTGGACCAAATCAACATCTCTACCAGTATCGTTCTCCGGAGTCACCTAGTGCAG” is 10200 fluorescence intensity (a.u.); for “TGTTCTTTTTTTTCCTGGCACCTGTTCTTTTTGCTAGAGGCGGAGTCACCTAGTGCAG” it is 8290 fluorescence intensity (a.u.).
The figure for “TAATTCCTCCTTTATGCATGTACCCCTATATCTAGGATTTCGGAGTCACCTAGTGCAG” is 9180 fluorescence intensity (a.u.).
Turning to “TCACATTTCGGTACGGCCCATTTGTCCATTCGGCCCATGTCGGAGTCACCTAGTGCAG”, the binding signal was 12500 fluorescence intensity (a.u.).
The figure for “TACAAGCCACATTTTCAAATCGGTCGTCTCACTTTTTCCTCGGAGTCACCTAGTGCAG” is 8230 fluorescence intensity (a.u.); for “GAACTTATTTTACTGCAATTGTTTGCATCACTTATTCTAACGGAGTCACCTAGTGCAG” it is 9570 fluorescence intensity (a.u.).
The same measure for “GTGCCTCTTATCTGTCGCCTGTCGCCTGTCGCCCAAGCCTCGGAGTCACCTAGTGCAG”: 10700 fluorescence intensity (a.u.); for “TTATATTTCCTGTTGATTCTATTTTTTTATTTCCAATGTACGGAGTCACCTAGTGCAG”: 8070 fluorescence intensity (a.u.); for “AATTATTTCTCGTCTTCAATTTGTCCTGGACCGTACCAAACGGAGTCACCTAGTGCAG”: 9940 fluorescence intensity (a.u.).
As for “ATGTAAATTGGTCAGACCCCTTTCTCTCACGTTGACCCTTCGGAGTCACCTAGTGCAG”, the binding signal is 8650 fluorescence intensity (a.u.).
As to “GAGTGAAATGACGGAACGTGGGGTGGGGTGGGCCTGGGCTCGGAGTCACCTAGTGCAG”, the binding signal was 10100 fluorescence intensity (a.u.).
The same measure for “TTGTTTCGCTTATTCATATGCTTATTCGAATCACTTATTTCGGAGTCACCTAGTGCAG”: 11800 fluorescence intensity (a.u.).
The same measure for “GGCCGGGCGAGGCGCTGGGAGGTGGCGGCTAGCGGCGGGGCGGAGTCACCTAGTGCAG”: 8500 fluorescence intensity (a.u.).
The figure for “ATCCACCTGTCTGTCTATGATATGAAATGAAGCTTTTTCCCGGAGTCACCTAGTGCAG” is 11000 fluorescence intensity (a.u.); for “GACCTATTATTTCTAGACCATCTATCTGTGCTAATCTGATCGGAGTCACCTAGTGCAG” it is 9720 fluorescence intensity (a.u.); for “AAATGATACTTTTCCGCCTATCCTCTGTTGATCTGTTACCCGGAGTCACCTAGTGCAG” it is 8480 fluorescence intensity (a.u.).
Take “CCAACAATGTACTCCATTAGTTTATTATGTTTCTTTATAGCGGAGTCACCTAGTGCAG”: the binding signal is 9030 fluorescence intensity (a.u.).
The figure for “TGGTAGTTTGAGCCTTTTGAGGTACATCCTCACACAATCGCGGAGTCACCTAGTGCAG” is 8600 fluorescence intensity (a.u.); for “ACATTAACGTACATAACGCTGACACAATTCTGCATTTCTACGGAGTCACCTAGTGCAG” it is 8050 fluorescence intensity (a.u.); for “CCGTATTTGAATATATGACGCCGTTGACTTTTTAACTAATCGGAGTCACCTAGTGCAG” it is 17900 fluorescence intensity (a.u.).
The figure for “ATGATGGCCCAACAAGTGTCGGAGGGGTTGGAAAAATTCGCGGAGTCACCTAGTGCAG” is 8110 fluorescence intensity (a.u.); for “CTGCACATTTGCTAAACAATTCCACTCACATGTCCCTCGACGGAGTCACCTAGTGCAG” it is 8440 fluorescence intensity (a.u.); for “ACTTTACCAAATTTCGGTCTCTTCATTTAGCATTATCAAACGGAGTCACCTAGTGCAG” it is 9300 fluorescence intensity (a.u.).
